Drawing on PMC7819943, “Rice protein-binding microarrays: a tool to detect cis-acting elements near promoter regions in rice”, this text covers binding signal for 54 sequences.

Sequences of proteins named here, by UniProt entry; tags and fusion partners are left off.
UniProt Q0JBA9, entry or part of it: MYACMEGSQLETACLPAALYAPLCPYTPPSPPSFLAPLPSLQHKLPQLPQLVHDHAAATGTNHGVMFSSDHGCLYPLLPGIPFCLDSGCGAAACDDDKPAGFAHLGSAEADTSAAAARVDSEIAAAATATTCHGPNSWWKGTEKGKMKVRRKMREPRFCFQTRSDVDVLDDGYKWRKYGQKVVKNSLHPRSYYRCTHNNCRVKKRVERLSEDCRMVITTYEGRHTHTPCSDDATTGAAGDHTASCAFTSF

The other results are listed elsewhere or left out.

The test addresses OsWRKY34 (Oryza sativa, UniProt Q0JBA9 1-250). The test is described as follows: protein-binding microarray (RPBM); PBS, 2% BSA, 51.3 ng/ul salmon testes DNA, 50 uM zinc acetate, 200 nM TF, 25 C, 1 h; high values mean tight binding. The note with it: protein: recombinant; tags: N-terminal polyhistidine and DsRed monomer fusion (pET32a); label: CyDye5-dUTP incorporated in the synthesized complementary strand; 3' TTTTT single-stranded linker to array surface; dsDNA, one strand shown. Put shortly:
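The binding signal is fluorescence intensity per array feature (arbitrary units). Readings came from an Axon 4000B scanner after a washed, 2% BSA-blocked, double-stranded custom Agilent array had been incubated for 1 h at 25 °C with 200 nM protein and 50 µM zinc acetate. The protein was a Ni–NTA-purified transcription factor fused N-terminally to polyhistidine and DsRed, expressed in E. coli BL21-CodonPlus.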
For the sequence “CCACTTTTCAAACCACCGAAGGATTCTATTTATATCGGTTCGGAGTCACCTAGTGCAG”, the binding signal was 8110 fluorescence intensity (a.u.). Take “CATGGTTGTAGTATTTCACTCCTTACAATCTTGACCAATTCGGAGTCACCTAGTGCAG”: the binding signal was 8830 fluorescence intensity (a.u.). The result for “TCCATGTTGAATACTTGCTGTTGCCTGCATTGCTTCTGCACGGAGTCACCTAGTGCAG” reads 8380 fluorescence intensity (a.u.); that for “CAGACTCAGTGCTATTTCTGTAGATTATCCTGTGTATTTTCGGAGTCACCTAGTGCAG”, 11900 fluorescence intensity (a.u.); that for “TACAGAGTTTCTTTCATCATTTCGATCACGCAATTCACATCGGAGTCACCTAGTGCAG”, 8280 fluorescence intensity (a.u.). The result for “GTTGCACGGTCGTGCCTTTCGTTTTTCGATGTTCAATCTACGGAGTCACCTAGTGCAG” reads 8200 fluorescence intensity (a.u.). Consider “CGGGAGGAGGGAGGTTGTTTCGTCTGGGGTTTGATTGGGACGGAGTCACCTAGTGCAG”, for which the binding signal was 18200 fluorescence intensity (a.u.). The result for “TGTCAACACATTCACCTGTATTTTTGGTATTATCCCATTGCGGAGTCACCTAGTGCAG” reads 9910 fluorescence intensity (a.u.); that for “CTGCATCTTCCAGCTCAAGTATTATATTGCTTATCGATTTCGGAGTCACCTAGTGCAG”, 10200 fluorescence intensity (a.u.); that for “ACTTTTTCGTCACATCGTTTTAATTTTAACATATTTTTAACGGAGTCACCTAGTGCAG”, 8610 fluorescence intensity (a.u.). The result for “GTTCGATGTGACAGGGTGCAAAATTTCGGGGTGGGATCTACGGAGTCACCTAGTGCAG” reads 13300 fluorescence intensity (a.u.); that for “GTGACGTGCTGGATTCTTGTCTATTACTCGTAAGATAGTTCGGAGTCACCTAGTGCAG”, 9200 fluorescence intensity (a.u.); that for “CACTCACCAGCTCCTGTTCCTGCTTTACTTGTCGTTGCTGCGGAGTCACCTAGTGCAG”, 10900 fluorescence intensity (a.u.). The result for “GCCGCCGCCCGCTTCCTCTCCTCCATCTCCCGAGAGATTTCGGAGTCACCTAGTGCAG” reads 8280 fluorescence intensity (a.u.). “GTCCTCGCTGCGGTCTTCTCCCTTCCTTCTCCTAGTCTAACGGAGTCACCTAGTGCAG”: the binding signal is 11100 fluorescence intensity (a.u.). In the case of “TTCTTGGTTTTGAGTTCTCTTCTCGGTTTTCTCTTTAGCGCGGAGTCACCTAGTGCAG”, the binding signal was 9000 fluorescence intensity (a.u.). The result for “CACCGCAAACTTTTCTCAGACTAATCACAGTTCCATCAACCGGAGTCACCTAGTGCAG” reads 8840 fluorescence intensity (a.u.); that for “TTAAGTTTGTTTGCTTTTGGAAATACCGATTCGTGTTTGACGGAGTCACCTAGTGCAG”, 8220 fluorescence intensity (a.u.).

On to “ATAGTATATCACTAGTCTTGGAGTGCAGCCGCGCACTAGTCGGAGTCACCTAGTGCAG”, for which the binding signal is 8120 fluorescence intensity (a.u.). The result for “TATATGTTTGGCGCTCAAAACCTAATAGTAGTTCTTATGTCGGAGTCACCTAGTGCAG” reads 8300 fluorescence intensity (a.u.); that for “ACATATTCTTTTTTTTTCCCGATTTTTCTTTTACCGCGTTCGGAGTCACCTAGTGCAG”, 12000 fluorescence intensity (a.u.). Turning to “GCCATTATTACGGGTCCATGCCAACACATGTGTAACACAACGGAGTCACCTAGTGCAG”, the binding signal was 9250 fluorescence intensity (a.u.). The result for “GGAACATCTTCTCCGGTTCTCCCTCACCGCTCACTGGCTCCGGAGTCACCTAGTGCAG” reads 9960 fluorescence intensity (a.u.). The result for “AATTCTCGTCTTCTCGGAGGTTTCTGAGGGGAGGGAGAGGCGGAGTCACCTAGTGCAG” reads 8480 fluorescence intensity (a.u.); that for “TGCTGAATCTTTTTTTTTATTTTTCTATAGTATTATTAAACGGAGTCACCTAGTGCAG”, 8040 fluorescence intensity (a.u.); that for “TTTTTAGCTTTAAGTGCCACGTTAACGTCATGTCATCGAGCGGAGTCACCTAGTGCAG”, 10000 fluorescence intensity (a.u.). With “AACCAAGCGCCATTCTTGCAAGCGCGATTCCCTTGCCATGCGGAGTCACCTAGTGCAG”, the binding signal was 8220 fluorescence intensity (a.u.). The result for “CGCTCGCCCGCCACTGCCGCTCTGCTCAGCCCGCCGCGCACGGAGTCACCTAGTGCAG” reads 8770 fluorescence intensity (a.u.); that for “AATATCACTTTGACTTGTTTGGTACTGTCCAATGCCAATACGGAGTCACCTAGTGCAG”, 9060 fluorescence intensity (a.u.).

“GCTTATGTTGGCTGCTGCATATGATCCGTGCTCCCTGATTCGGAGTCACCTAGTGCAG”: the binding signal is 9550 fluorescence intensity (a.u.). Take “ACCTTCTTTTGCTGTTAATCACGGTTAGGTTTGAGTTAATCGGAGTCACCTAGTGCAG”: the binding signal was 9070 fluorescence intensity (a.u.). The result for “GTGTAGATCTATCTCTTGTATGCGAGTCAACACTAATCATCGGAGTCACCTAGTGCAG” reads 8170 fluorescence intensity (a.u.); that for “ATCAAGGACTAACCATGCCATCCCACGATCCGATCCCTGCCGGAGTCACCTAGTGCAG”, 8390 fluorescence intensity (a.u.); that for “CCTATCCTCTGCAGCTGCACACCTCTAGTATATAGCTGACCGGAGTCACCTAGTGCAG”, 9060 fluorescence intensity (a.u.). As to “GAGGGCCCCTCGTCGGGGTCAATGGGCGGTGGGGCCAGACCGGAGTCACCTAGTGCAG”, the binding signal is 10000 fluorescence intensity (a.u.). As to “ATCTAGTTGTATTGTTGGGTCCTATATGCTTCACATCACTCGGAGTCACCTAGTGCAG”, the binding signal is 9940 fluorescence intensity (a.u.). For “TGCAGCACGGGGTAGTTGGGTTGGGTCCGGACGCGGCGCGCGGAGTCACCTAGTGCAG”, the binding signal is 8830 fluorescence intensity (a.u.). For the sequence “ATAGGGTTCATTGAAATATCATAAGCTTCTATTGTTGTAACGGAGTCACCTAGTGCAG”, the binding signal was 8350 fluorescence intensity (a.u.). Regarding “TTTTATCGTACATGCTACAGTGCCTACTTGTGTATTAATTCGGAGTCACCTAGTGCAG”, the binding signal was 8280 fluorescence intensity (a.u.). As for “CTAGGTCGAGGTAGGGCTCGGTTTCCTCGCATCTTGCAACCGGAGTCACCTAGTGCAG”, the binding signal is 8140 fluorescence intensity (a.u.). On to “GCTGTTCGTTCATGATCTTGTTCCATTCTACAGGGGTCGTCGGAGTCACCTAGTGCAG”, for which the binding signal is 9330 fluorescence intensity (a.u.). The result for “TACTACCACTAAATATCTAGCATCCTTATCCTCTTCTTTGCGGAGTCACCTAGTGCAG” reads 10900 fluorescence intensity (a.u.). The result for “TACTTCCTGATCGAAGCATCTTATCTCTAGCTGTCCCATACGGAGTCACCTAGTGCAG” reads 8870 fluorescence intensity (a.u.); that for “GTACTTTATCTTATAACATTTTATTTTGAATCGATTAGGACGGAGTCACCTAGTGCAG”, 8170 fluorescence intensity (a.u.); that for “CTCCTCTGAACCGCCATCAGCCACCACCTCTCGCCGCCTACGGAGTCACCTAGTGCAG”, 13600 fluorescence intensity (a.u.). Take “GGCGATGTGCTGCTTTAATTTGGCGATCCGGTTAAGGAGACGGAGTCACCTAGTGCAG”: the binding signal is 8070 fluorescence intensity (a.u.). Regarding “CCCTTAATTAATTAAAACCGGTCACAGTATGTCCTTTAATCGGAGTCACCTAGTGCAG”, the binding signal is 10700 fluorescence intensity (a.u.). Take “CATGCATCCATATTAGATTGTTTGCGAAATTAATTATTCACGGAGTCACCTAGTGCAG”: the binding signal was 8470 fluorescence intensity (a.u.). For “ACTCTCGACTACTTGGCTTCTAATTTACAGTAATTTTATCCGGAGTCACCTAGTGCAG”, the binding signal is 10300 fluorescence intensity (a.u.).

As to “GCCGCCTCGCCTCGCCGCCGCCTCGCCTCCTCCGCGAGCACGGAGTCACCTAGTGCAG”, the binding signal was 9630 fluorescence intensity (a.u.). In the case of “AATTTGAATCCATGTTGCTGTCTCGTTATTGGTGTGTTACCGGAGTCACCTAGTGCAG”, the binding signal was 11800 fluorescence intensity (a.u.). As for “GCCACCTCGCCCCATCACCCTCTCCCTCCACCACACTACACGGAGTCACCTAGTGCAG”, the binding signal is 8070 fluorescence intensity (a.u.). Consider “TCATCGGTGCGGATCGGGCGTATTCTCTTTCGTCATACCTCGGAGTCACCTAGTGCAG”, for which the binding signal was 10200 fluorescence intensity (a.u.). “ACTCTGTTTGATCCATTTGAGGGGAAGAGGGGCCAAGGTTCGGAGTCACCTAGTGCAG”: the binding signal was 9560 fluorescence intensity (a.u.).
